Some of the results follow.
These targets were tested with CN(CCOC1=CC=C(C=C1)C[C@H]2C(=O)NC(=O)S2)C3=CC=CC=N3 (racemic) [rosiglitazone] (assay: log2 fold change, soluble protein after heating vs DMSO (PISA); higher = thermal stabilisation; K562 cells, 10 uM, 30 min; active = over 0.2 and 3.5 SD of the protein, either way, in both replicates (recomputed)).
Outline: (§1)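 Quantification of soluble protein used TMTpro 16plex LC-MS/MS, with channel sums equalised. Samples were the supernatant after 21,000xg for 90 min of pooled aliquots from K562 cells (2×10^6 cells/mL) treated with 10 μM compound for 30 min, heated for 3 min over 48°C-58°C, and extracted in PBS with 0.5% NP-40 at 4°C. Values, from duplicates, describe thermal stability against control samples on a log2 fold-change scale.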

Amino acid sequences for entries named in this document (tags omitted). A change or cut given only in a name is not applied to a line headed by its entry.
UniProt P49747: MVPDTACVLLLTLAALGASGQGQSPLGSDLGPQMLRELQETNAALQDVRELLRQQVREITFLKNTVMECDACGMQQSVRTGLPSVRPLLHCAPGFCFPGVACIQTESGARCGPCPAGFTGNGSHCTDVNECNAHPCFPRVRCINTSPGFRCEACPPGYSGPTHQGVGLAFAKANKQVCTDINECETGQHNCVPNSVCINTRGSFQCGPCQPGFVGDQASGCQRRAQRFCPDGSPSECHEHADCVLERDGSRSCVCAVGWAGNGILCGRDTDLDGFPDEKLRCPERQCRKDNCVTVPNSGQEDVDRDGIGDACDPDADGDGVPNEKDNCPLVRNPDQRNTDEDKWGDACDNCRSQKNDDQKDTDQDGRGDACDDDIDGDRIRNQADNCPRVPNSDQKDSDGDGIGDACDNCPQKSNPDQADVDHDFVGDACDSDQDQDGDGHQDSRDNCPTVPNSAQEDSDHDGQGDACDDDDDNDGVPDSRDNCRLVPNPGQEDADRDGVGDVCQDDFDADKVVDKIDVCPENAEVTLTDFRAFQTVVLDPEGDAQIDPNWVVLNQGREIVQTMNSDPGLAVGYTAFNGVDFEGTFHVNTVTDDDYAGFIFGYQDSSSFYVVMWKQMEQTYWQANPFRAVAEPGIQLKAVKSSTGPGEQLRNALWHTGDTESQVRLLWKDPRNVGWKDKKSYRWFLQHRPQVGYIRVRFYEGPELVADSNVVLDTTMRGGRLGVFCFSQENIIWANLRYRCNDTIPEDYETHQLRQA
UniProt O75575: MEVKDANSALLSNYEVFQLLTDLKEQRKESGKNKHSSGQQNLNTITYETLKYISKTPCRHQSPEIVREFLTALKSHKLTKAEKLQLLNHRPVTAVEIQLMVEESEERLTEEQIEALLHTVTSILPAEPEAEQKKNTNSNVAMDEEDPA
UniProt Q9UBI1, whole entry, looked up: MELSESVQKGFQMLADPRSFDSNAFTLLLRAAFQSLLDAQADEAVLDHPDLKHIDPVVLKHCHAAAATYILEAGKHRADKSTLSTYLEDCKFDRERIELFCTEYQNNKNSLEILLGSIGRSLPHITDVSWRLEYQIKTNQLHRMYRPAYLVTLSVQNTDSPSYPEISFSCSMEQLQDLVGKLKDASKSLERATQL
UniProt Q9H0A8, whole entry, looked up: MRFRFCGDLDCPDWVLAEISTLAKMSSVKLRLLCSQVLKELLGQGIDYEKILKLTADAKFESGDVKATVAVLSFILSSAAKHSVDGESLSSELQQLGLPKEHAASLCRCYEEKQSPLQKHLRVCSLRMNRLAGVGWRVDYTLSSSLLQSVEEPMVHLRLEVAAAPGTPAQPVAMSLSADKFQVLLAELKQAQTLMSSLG
UniProt P12074, whole entry, looked up: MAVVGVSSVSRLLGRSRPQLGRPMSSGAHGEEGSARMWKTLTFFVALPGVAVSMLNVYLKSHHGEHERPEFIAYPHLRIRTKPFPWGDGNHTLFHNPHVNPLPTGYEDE
UniProt Q9UBL6: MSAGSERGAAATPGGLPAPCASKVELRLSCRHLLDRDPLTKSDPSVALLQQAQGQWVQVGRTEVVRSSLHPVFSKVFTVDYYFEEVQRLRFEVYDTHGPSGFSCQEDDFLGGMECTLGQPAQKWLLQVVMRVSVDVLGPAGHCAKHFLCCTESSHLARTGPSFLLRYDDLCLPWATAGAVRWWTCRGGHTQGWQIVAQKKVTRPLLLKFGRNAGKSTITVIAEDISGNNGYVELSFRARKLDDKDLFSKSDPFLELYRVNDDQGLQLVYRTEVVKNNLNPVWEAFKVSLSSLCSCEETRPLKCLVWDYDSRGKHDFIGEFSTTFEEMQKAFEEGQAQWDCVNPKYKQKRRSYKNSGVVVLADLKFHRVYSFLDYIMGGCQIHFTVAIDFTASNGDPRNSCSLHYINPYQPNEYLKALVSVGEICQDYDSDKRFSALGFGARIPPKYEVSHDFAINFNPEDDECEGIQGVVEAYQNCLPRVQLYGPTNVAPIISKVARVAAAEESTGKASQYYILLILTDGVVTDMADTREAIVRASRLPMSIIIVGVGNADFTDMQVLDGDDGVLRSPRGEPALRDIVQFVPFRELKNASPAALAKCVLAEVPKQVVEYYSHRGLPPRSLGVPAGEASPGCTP
UniProt Q17RY0: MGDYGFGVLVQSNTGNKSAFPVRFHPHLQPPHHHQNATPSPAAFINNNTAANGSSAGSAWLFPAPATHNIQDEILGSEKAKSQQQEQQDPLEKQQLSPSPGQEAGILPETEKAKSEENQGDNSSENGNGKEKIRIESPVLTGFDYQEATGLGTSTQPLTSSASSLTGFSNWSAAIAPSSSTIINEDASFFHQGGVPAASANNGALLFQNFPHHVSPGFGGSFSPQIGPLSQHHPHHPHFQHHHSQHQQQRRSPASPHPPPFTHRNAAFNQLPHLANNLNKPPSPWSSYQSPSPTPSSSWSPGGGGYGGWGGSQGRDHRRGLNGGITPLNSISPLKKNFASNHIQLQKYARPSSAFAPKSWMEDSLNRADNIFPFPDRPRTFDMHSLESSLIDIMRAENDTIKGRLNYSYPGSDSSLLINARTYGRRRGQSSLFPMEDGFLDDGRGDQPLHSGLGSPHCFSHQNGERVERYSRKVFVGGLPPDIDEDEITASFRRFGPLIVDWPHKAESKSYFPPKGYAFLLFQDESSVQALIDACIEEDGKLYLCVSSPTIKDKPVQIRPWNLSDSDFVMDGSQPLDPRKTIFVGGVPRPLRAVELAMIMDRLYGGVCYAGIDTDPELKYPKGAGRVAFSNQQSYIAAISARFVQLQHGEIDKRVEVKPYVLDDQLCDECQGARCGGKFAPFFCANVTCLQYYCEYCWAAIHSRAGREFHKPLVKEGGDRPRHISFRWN
UniProt P20674, whole entry, looked up: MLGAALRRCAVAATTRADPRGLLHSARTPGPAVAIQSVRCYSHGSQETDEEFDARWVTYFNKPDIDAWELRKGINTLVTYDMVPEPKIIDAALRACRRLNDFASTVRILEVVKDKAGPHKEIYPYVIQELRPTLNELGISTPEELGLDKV
UniProt P10606, whole entry, looked up: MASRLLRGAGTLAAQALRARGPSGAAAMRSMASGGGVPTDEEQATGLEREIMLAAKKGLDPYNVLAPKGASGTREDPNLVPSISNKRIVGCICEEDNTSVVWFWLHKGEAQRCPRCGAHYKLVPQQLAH
UniProt P67870, whole entry, looked up: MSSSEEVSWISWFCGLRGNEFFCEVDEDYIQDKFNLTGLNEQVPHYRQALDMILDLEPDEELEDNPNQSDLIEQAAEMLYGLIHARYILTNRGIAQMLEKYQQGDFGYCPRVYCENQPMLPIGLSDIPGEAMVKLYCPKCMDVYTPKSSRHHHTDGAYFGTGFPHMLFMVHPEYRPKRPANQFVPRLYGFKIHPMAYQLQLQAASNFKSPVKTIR
UniProt P23786: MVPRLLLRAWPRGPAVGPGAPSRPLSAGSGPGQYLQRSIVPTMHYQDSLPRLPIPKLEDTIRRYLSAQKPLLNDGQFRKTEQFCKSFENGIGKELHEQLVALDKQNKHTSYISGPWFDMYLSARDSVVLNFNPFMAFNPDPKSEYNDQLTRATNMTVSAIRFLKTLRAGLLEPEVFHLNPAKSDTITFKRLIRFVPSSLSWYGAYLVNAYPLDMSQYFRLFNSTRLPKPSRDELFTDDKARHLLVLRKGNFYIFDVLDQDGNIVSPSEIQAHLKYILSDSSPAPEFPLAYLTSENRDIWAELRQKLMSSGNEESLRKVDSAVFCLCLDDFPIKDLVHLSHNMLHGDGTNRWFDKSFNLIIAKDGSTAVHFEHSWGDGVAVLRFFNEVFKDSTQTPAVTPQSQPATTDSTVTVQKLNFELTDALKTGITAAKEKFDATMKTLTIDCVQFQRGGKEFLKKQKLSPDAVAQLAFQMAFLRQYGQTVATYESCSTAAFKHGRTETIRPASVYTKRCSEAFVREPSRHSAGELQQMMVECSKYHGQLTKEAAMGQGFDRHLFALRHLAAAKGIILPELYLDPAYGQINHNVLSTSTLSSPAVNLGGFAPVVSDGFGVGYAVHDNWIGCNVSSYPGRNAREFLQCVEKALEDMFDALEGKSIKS
UniProt P46108: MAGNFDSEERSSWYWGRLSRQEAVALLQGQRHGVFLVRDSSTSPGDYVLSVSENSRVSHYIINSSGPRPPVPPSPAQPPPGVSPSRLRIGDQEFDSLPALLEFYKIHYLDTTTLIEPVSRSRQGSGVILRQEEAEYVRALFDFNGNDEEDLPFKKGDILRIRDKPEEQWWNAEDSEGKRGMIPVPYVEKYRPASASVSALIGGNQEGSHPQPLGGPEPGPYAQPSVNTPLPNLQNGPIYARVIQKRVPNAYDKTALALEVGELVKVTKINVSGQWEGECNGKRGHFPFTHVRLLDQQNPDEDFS
UniProt O75208: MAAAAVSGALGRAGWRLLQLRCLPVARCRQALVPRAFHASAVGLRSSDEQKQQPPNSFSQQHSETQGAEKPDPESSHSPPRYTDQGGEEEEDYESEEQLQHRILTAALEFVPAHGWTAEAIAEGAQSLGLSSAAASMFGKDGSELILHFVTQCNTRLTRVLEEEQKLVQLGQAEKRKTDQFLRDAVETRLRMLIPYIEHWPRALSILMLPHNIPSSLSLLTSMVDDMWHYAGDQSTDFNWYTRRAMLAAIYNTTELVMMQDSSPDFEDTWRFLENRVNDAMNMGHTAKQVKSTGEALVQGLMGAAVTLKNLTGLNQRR
UniProt Q5RI15: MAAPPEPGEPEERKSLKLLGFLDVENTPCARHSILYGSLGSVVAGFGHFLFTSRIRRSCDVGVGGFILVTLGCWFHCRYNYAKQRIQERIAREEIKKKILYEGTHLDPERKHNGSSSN
UniProt P41240: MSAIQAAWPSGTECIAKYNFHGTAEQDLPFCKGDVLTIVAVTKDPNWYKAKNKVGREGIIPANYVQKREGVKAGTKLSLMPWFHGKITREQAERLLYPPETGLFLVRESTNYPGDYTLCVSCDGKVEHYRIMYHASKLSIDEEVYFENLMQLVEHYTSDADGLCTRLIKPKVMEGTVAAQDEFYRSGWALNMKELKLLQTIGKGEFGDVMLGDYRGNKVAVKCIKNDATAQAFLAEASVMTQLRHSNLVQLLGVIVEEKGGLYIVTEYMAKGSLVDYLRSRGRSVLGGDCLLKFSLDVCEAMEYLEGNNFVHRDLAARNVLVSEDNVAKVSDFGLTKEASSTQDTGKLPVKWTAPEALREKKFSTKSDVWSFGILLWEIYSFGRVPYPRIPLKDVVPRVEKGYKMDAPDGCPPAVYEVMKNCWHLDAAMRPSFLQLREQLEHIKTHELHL
UniProt P21964: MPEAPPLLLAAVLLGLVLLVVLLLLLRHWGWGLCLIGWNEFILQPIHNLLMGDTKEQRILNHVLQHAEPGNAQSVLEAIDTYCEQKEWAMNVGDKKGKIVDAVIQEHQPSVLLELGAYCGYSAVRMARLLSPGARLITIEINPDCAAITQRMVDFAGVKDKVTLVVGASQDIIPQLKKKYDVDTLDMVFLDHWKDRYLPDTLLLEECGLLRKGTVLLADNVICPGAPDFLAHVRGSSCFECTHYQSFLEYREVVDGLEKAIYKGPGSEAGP
UniProt Q8IUI8: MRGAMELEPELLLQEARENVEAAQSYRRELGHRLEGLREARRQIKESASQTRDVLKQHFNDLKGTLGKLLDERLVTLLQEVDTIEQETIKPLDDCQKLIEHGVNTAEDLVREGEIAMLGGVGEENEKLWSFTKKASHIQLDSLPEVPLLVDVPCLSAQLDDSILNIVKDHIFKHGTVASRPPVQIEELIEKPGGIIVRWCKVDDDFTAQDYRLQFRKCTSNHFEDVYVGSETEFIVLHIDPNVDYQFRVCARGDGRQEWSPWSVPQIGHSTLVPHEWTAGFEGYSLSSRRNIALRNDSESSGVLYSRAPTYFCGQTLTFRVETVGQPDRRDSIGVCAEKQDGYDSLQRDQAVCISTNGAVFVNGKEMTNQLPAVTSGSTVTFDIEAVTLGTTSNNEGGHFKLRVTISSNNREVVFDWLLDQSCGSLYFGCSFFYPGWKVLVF
UniProt P19784, whole entry, looked up: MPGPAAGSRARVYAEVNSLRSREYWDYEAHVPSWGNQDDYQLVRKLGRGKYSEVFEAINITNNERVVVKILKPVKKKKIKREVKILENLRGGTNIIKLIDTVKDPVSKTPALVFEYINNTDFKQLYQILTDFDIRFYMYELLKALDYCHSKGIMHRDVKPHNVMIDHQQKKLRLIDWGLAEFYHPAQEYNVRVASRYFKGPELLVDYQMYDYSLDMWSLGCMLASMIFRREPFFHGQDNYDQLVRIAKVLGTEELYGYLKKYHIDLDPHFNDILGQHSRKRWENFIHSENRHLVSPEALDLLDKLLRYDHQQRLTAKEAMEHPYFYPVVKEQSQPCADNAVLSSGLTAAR
UniProt Q9UJA2: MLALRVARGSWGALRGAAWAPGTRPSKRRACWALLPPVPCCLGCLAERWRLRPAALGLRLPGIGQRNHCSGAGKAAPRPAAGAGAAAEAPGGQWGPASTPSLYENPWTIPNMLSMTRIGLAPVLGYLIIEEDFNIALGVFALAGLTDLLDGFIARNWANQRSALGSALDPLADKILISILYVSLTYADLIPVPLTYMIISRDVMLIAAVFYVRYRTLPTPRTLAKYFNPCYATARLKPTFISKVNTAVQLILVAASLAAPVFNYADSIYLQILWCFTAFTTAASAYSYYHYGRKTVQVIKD

log2 fold change, inactive:
COMP (UniProt P49747) 0.061
CRCP (UniProt O75575) -0.105
COMMD3 (UniProt Q9UBI1) 0.043
COMMD4 (UniProt Q9H0A8) 0.049
COX6A1 (UniProt P12074) -0.015
CPNE7 (UniProt Q9UBL6) 0.048
COL6A1 (UniProt P12109) 0.148
CPEB4 (UniProt Q17RY0) 0.032

These targets were tested with CN1C2=C(C3=C1C(=O)N(N=C3)CC4=CC(=CC=C4)N)SC(=C2)S(=O)C in the same assay as above.
Outline: as §1

log2 fold change, inactive:
CPSF1 (UniProt Q10570) 0.116
COPS4 (UniProt Q9BT78) -0.092
COMMD2 (UniProt Q86X83) 0
COMP (UniProt P49747) 0.278
CPD (UniProt O75976) 0.029
CRCP (UniProt O75575) -0.036
COMMD3 (UniProt Q9UBI1) 0.001
COX5A (UniProt P20674) -0.063
COX5B (UniProt P10606) -0.037
CSNK2B (UniProt P67870) -0.048
CPT2 (UniProt P23786) -0.136
CSNK2A1 (UniProt P68400) -0.04
CRK (UniProt P46108) -0.028
COQ9 (UniProt O75208) -0.057
COX20 isoform 2 (UniProt Q5RI15) 0.002
CORO2A (UniProt Q92828) -0.022
COMMD4 (UniProt Q9H0A8) 0.092
COX6A1 (UniProt P12074) -0.007
CSK (UniProt P41240) -0.011
COMT (UniProt P21964) -0.11
CRLF3 (UniProt Q8IUI8) 0.031
CSNK2A2 (UniProt P19784) -0.038
CPT1A (UniProt P50416) -0.053
CPNE7 (UniProt Q9UBL6) -0.035
CS (UniProt O75390) -0.088
CRLS1 (UniProt Q9UJA2) -0.006
COPS3 (UniProt Q9UNS2) -0.038
COL6A1 (UniProt P12109) 0.256
CRYM-AS1 (UniProt A6NIL9) 0.04
CPEB4 (UniProt Q17RY0) 0.077
CSE1L (UniProt P55060) -0.095
CPSF7 isoform 3 (UniProt Q8N684) -0.001

Reference: the supplement of paper PMC10849652
